Data taken from PubChem BioAssay AID2685 (National Center for Advancing Translational Sciences (NCATS), 2010).
This is one part of the list. These are further read-outs of the screen, such as a control signal, another cell line or another target. No call is given for them. The list favours compounds with an active or inconclusive main result. Words in brackets tell the shape of the fitted curve; partial curves, single points and poor fits give uncertain potencies.

Assay: qHTS Assay for Lipid Storage Modulators in Drosophila S3 Cells;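 on cell number change: cells counted by Cell Tracker Red CMTPX staining in the red channel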
Settings: BODIPY lipid droplet fluorescence, 18-24 h; for cell number change: measured here: cell count max response, cells fed with added oleic acid
How it was run: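 Laser-scanning cytometry quantifies lipid droplet accumulation (500–530 nm total intensity; droplet/cell object ratio) in oleic acid-fed (400 uM added) Drosophila S3 cells treated with a concentration series. 20 uM Triacsin C defined 100% inhibition.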

[1] = measured here: cell number channel AC50, cells fed with added oleic acid
[2] = measured here: lipid fluorescence (Fed channel) AC50, cells fed with added oleic acid

SMILES	cell number change [%]	AC50 [1]	AC50 [2]
O=C(CCCc1ccccc1)NCc1ccc2c(c1)OCO2	2.65		
Cc1cccc(Nc2nc(-c3ccccn3)cs2)n1	-56.7	14.6 µM [falling, partial curve]	
Cc1cc(OCC(O)CN2CCN(C)CC2)ccc1C(C)C (centres undefined)	-0.256		
COc1ccccc1Oc1ccc2c(c1)C(=O)N(c1ccc(C)cc1)C2=O	-7.28		
CC(C(=O)OCC(=O)c1ccc(F)cc1)N1C(=O)C2C3C=CC(C3)C2C1=O (centres undefined)	9.21		
CC(/C=C/c1ccccc1)=N/NC(=O)C(O)c1ccccc1 (centres undefined)	8.51		
CCCCNC(=O)c1c(O)c2cccc3c2n(c1=O)CCC3		0.231 µM [rising, partial curve, poor fit]	10.3 µM [rising, partial curve]
Cc1nc2ccc(NS(=O)(=O)c3c(C)c(C)cc(C)c3C)cc2s1	61.8	25.9 µM [rising, partial curve]	1.64 µM [rising, full curve]
Cc1sc2nc(SCC(=O)NCCOCCO)nc(N)c2c1C	-7.2		0.82 µM [falling, full curve]
COc1ccc(-c2coc3c(CN4CCCCC4)c(O)c(CN4CCCCC4)c(O)c3c2=O)cc1	107	29.1 µM [rising, single point]	0.731 µM [falling, partial curve]
O=[N+]([O-])c1ccc(C2CCCC/C2=N/O)c([N+](=O)[O-])c1 (centres undefined)	27.2		23.1 µM [rising, single point]
O=C(CNCc1cccs1)Nc1ccc(S(=O)(=O)N2CCCCC2)cc1	32.8	13 µM [rising, single point]	
Cc1ccc(C(=O)Nc2ccc(Cl)cc2C)c(Cl)c1	26.4		0.651 µM [falling, single point]
CCOC(=O)NC(=O)/C(C#N)=C\Nc1ccc(Cl)cc1Cl	-8.01	0.146 µM [falling, full curve, poor fit]	
O=C(NCC(=O)N1CCN(S(=O)(=O)c2ccccc2F)CC1)c1ccc(Br)o1	41.3		11.6 µM [rising, partial curve, poor fit]
CC(C)C(c1nnnn1Cc1ccccc1)N(Cc1ccco1)Cc1cccs1 (centres undefined)	-9.75		0.0058 µM [rising, full curve, poor fit]
CC(C)C(=O)NC(=S)Nc1c(Cl)ccc2nsnc12	17.9		0.116 µM [rising, full curve, poor fit]

SMILES	cell number change [%]	AC50 [1]	AC50 [2]
O=C(CCCC(=O)NC1CCCCC1)Nc1ccc([N+](=O)[O-])cc1			0.13 µM [falling, full curve]
O=C(Cn1c(CO)nc2ccccc21)Nc1ccccc1Cl		1.84 µM [rising, single point]	6.51 µM [rising, single point]
CC(NC(=O)COc1ccccc1)C(c1cccs1)N1CCCC1 (centres undefined)	3.11		0.13 µM [falling, full curve, poor fit]
O=C(Nc1cccc(Cl)c1)N1CCN(Cc2ccccc2)CC1	19.5		29.1 µM [rising, single point]
O=C(Nc1nnc(CC(=O)N2CCOCC2)s1)C1COc2ccccc2O1 (centres undefined)	-1.12		
CC(NC(=O)COC(=O)c1cn(-c2ccccc2)nc1-c1cccs1)c1ccccc1 (centres undefined)	81.5	18.4 µM [rising, single point]	
CCc1ccc(NC2=NC(C(=O)c3ccccc3)CC(=O)N2)cc1 (centres undefined)	-20.1		0.00731 µM [falling, full curve]
Cc1nc2cc(-c3ccccc3)ccc2o1	-15.5		
O=C(CSc1nnc(CN2CCOCC2)n1-c1ccc(Cl)cc1)Nc1cc(Cl)ccc1O	-7.27		
O=C(O)CCN=Cc1c(O)c2ccccc2oc1=O	-6.74		29.1 µM [falling, single point]
CCN(Cc1nc2ccccc2n1C)c1ccccc1	-9.12		29.1 µM [rising, single point]
N#CCSc1nnc2ccc3ccccc3n12	110	20.6 µM [rising, single point]	29.1 µM [rising, single point]
CCc1nnc(NC(=O)CCC(=O)N2CCN(Cc3ccc(OC)c(F)c3)CC2)s1	-3.36		
CCCCN(CC)CCNC(=O)c1cc2c(=O)n(C)c3ccccc3c2n1C	48.4	6.51 µM [rising, full curve]	5.17 µM [rising, full curve]
CN1CCN(C(=O)N2CCNC2=O)CC1	9.72		16.4 µM [falling, single point]
C=C(C)Cn1c(SCC)nc2ccccc2c1=O	48.3		

A run of entries from further up, for reference:
SMILES	cell number change [%]	AC50 [1]	AC50 [2]
CCN(Cc1nc2ccccc2n1C)c1ccccc1	-9.12		29.1 µM [rising, single point]
N#CCSc1nnc2ccc3ccccc3n12	110	20.6 µM [rising, single point]	29.1 µM [rising, single point]
